PubChem BioAssay AID1224830, NIAID | 2016
Assay: 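Regulators of TLR4 signalling towards TNF-alpha in macrophage-like cells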 (primary screen). Cell system: human THP-1 monocytic leukaemia cells, TNF dual-luciferase reporter clone, PMA-differentiated to macrophage-like cells. Knock-down reagent: siRNA pool against human genes, 50 nM. Duration: LPS for 4 h, given about 3 days after siRNA transfection. Conditions: bacterial LPS (TLR4 ligand), 10 ng/ml. Read-out: 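Ratio of firefly to renilla light, scaled to the plate median and expressed as a robust z-score per replicate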. Scale: TNF reporter robust z-score: higher = stronger TNF reporter response to LPS. Call rule: 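Each well counts as active if its z-score is over 2.8 or under -1.5; controls are left without a call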.
Here is an unselected part of about 18,000 reagents tested. Of all reagents, about 2,900 (16%) got an active call. 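Calls are made per well; low scores hint the gene aids the LPS response, high scores that it dampens it.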 Entries without a mark were called inactive. Repeated entries: four replicate wells of each siRNA pool. Reagent sequences are not shown.

gene	TNF reporter robust z-score
KCNC4 (potassium voltage-gated channel subfamily C member 4)	-0.34
KCNC4 (potassium voltage-gated channel subfamily C member 4)	-0.45
KCNC4 (potassium voltage-gated channel subfamily C member 4)	-0.92
KCNC4 (potassium voltage-gated channel subfamily C member 4)	-0.08
OR7A10 (olfactory receptor family 7 subfamily A member 10)	-0.33
OR7A10 (olfactory receptor family 7 subfamily A member 10)	0.19
OR7A10 (olfactory receptor family 7 subfamily A member 10)	0.3
OR7A10 (olfactory receptor family 7 subfamily A member 10)	-0.49
CWF19L2 (CWF19 like cell cycle control factor 2)	-0.87
CWF19L2 (CWF19 like cell cycle control factor 2)	-0.68
CWF19L2 (CWF19 like cell cycle control factor 2)	1.63
CWF19L2 (CWF19 like cell cycle control factor 2)	0.38
VDAC2 (voltage dependent anion channel 2)	-0.37
VDAC2 (voltage dependent anion channel 2)	-0.91
VDAC2 (voltage dependent anion channel 2)	-0.06
VDAC2 (voltage dependent anion channel 2)	-0.17
GORAB (golgin, RAB6 interacting)	0.72
GORAB (golgin, RAB6 interacting)	1.34
GORAB (golgin, RAB6 interacting)	0.98
GORAB (golgin, RAB6 interacting)	0.99
SMARCD1 (SWI/SNF related BAF chromatin remodeling complex subunit D1)	-0.58
SMARCD1 (SWI/SNF related BAF chromatin remodeling complex subunit D1)	0.74
SMARCD1 (SWI/SNF related BAF chromatin remodeling complex subunit D1)	0.08
GJB1 (gap junction protein beta 1)	-1.46
GJB1 (gap junction protein beta 1)	-1.25
GJB1 (gap junction protein beta 1)	-0.78
GJB1 (gap junction protein beta 1)	0.04
GAB1 (GRB2 associated binding protein 1)	1.04
GAB1 (GRB2 associated binding protein 1)	0.13
GAB1 (GRB2 associated binding protein 1)	-0.37
GAB1 (GRB2 associated binding protein 1)	-0.16
TRDMT1 (tRNA aspartic acid methyltransferase 1)	0.84
TRDMT1 (tRNA aspartic acid methyltransferase 1)	1.16
TRDMT1 (tRNA aspartic acid methyltransferase 1)	0.36
TRDMT1 (tRNA aspartic acid methyltransferase 1)	1.15
SPRN (shadow of prion protein)	-0.44
SPRN (shadow of prion protein)	-0.05
SPRN (shadow of prion protein)	-0.22
SPRN (shadow of prion protein)	0.57
ATXN7L1 (ataxin 7 like 1)	-0.28
ATXN7L1 (ataxin 7 like 1)	-0.18
ATXN7L1 (ataxin 7 like 1)	-0.98
ATXN7L1 (ataxin 7 like 1)	0.55
CERKL (CERK like autophagy regulator)	-1.09
CERKL (CERK like autophagy regulator)	-1.27
CERKL (CERK like autophagy regulator)	-0.6
CERKL (CERK like autophagy regulator)	-0.71
ARHGEF35 (Rho guanine nucleotide exchange factor 35)	-0.81
ARHGEF35 (Rho guanine nucleotide exchange factor 35)	-0.46
ARHGEF35 (Rho guanine nucleotide exchange factor 35)	-1.12
ARHGEF35 (Rho guanine nucleotide exchange factor 35)	-0.73
RASSF8 (Ras association domain family member 8)	0.89
RASSF8 (Ras association domain family member 8)	1
RASSF8 (Ras association domain family member 8)	-0.15
RASSF8 (Ras association domain family member 8)	0.33
CA6 (carbonic anhydrase 6)	-1.53 (active)
CA6 (carbonic anhydrase 6)	0.53
CA6 (carbonic anhydrase 6)	0.29
CA6 (carbonic anhydrase 6)	0.72
DDX46 (DEAD-box helicase 46)	-1.35
DDX46 (DEAD-box helicase 46)	-0.51
DDX46 (DEAD-box helicase 46)	-0.85
DDX46 (DEAD-box helicase 46)	-0.7
ZNF182 (zinc finger protein 182)	-0.85
ZNF182 (zinc finger protein 182)	-0.98
ZNF182 (zinc finger protein 182)	-0.52
CNOT3 (CCR4-NOT transcription complex subunit 3)	-0.06
CNOT3 (CCR4-NOT transcription complex subunit 3)	-0.09
CNOT3 (CCR4-NOT transcription complex subunit 3)	-0.89
CNOT3 (CCR4-NOT transcription complex subunit 3)	0.28

Part of the list above in another layout.
gene,TNF reporter robust z-score
GAB1 (GRB2 associated binding protein 1),-0.37
GAB1 (GRB2 associated binding protein 1),-0.16
TRDMT1 (tRNA aspartic acid methyltransferase 1),0.84
TRDMT1 (tRNA aspartic acid methyltransferase 1),1.16
TRDMT1 (tRNA aspartic acid methyltransferase 1),0.36
TRDMT1 (tRNA aspartic acid methyltransferase 1),1.15
SPRN (shadow of prion protein),-0.44

Next entries:
gene	TNF reporter robust z-score
PDGFD (platelet derived growth factor D)	-0.61
PDGFD (platelet derived growth factor D)	-1.05
PDGFD (platelet derived growth factor D)	-0.15
PDGFD (platelet derived growth factor D)	-0.48
MYL12B (myosin light chain 12B)	1.09
MYL12B (myosin light chain 12B)	0.11
MYL12B (myosin light chain 12B)	0
MYL12B (myosin light chain 12B)	0.04
PCDHB6 (protocadherin beta 6)	-0.33
PCDHB6 (protocadherin beta 6)	-0.77
PCDHB6 (protocadherin beta 6)	0.08
PCDHB6 (protocadherin beta 6)	-0.85
GATAD2B (GATA zinc finger domain containing 2B)	1.48
GATAD2B (GATA zinc finger domain containing 2B)	1.7
GATAD2B (GATA zinc finger domain containing 2B)	1.51
GATAD2B (GATA zinc finger domain containing 2B)	2.26
OXNAD1 (oxidoreductase NAD binding domain containing 1)	-0.54
OXNAD1 (oxidoreductase NAD binding domain containing 1)	0
OXNAD1 (oxidoreductase NAD binding domain containing 1)	-0.18
OXNAD1 (oxidoreductase NAD binding domain containing 1)	-0.5
CENPA (centromere protein A)	2.03
CENPA (centromere protein A)	1.92
CENPA (centromere protein A)	0.44
CENPA (centromere protein A)	-0.58
CSF2 (colony stimulating factor 2)	-0.68
CSF2 (colony stimulating factor 2)	-1.01
CSF2 (colony stimulating factor 2)	-1.02
PROM2 (prominin 2)	-0.89
PROM2 (prominin 2)	-0.72
PROM2 (prominin 2)	-0.27
PROM2 (prominin 2)	-0.61
TRIM32 (tripartite motif containing 32)	-0.7
TRIM32 (tripartite motif containing 32)	0
TRIM32 (tripartite motif containing 32)	-0.53
TRIM32 (tripartite motif containing 32)	0.86
TMEM208 (transmembrane protein 208)	-0.45
TMEM208 (transmembrane protein 208)	-0.98
TMEM208 (transmembrane protein 208)	-0.71
TMEM208 (transmembrane protein 208)	-0.05
ACTL9 (actin like 9)	-0.06
ACTL9 (actin like 9)	0.33
ACTL9 (actin like 9)	0.12
ACTL9 (actin like 9)	-0.3
SLC4A1	0.93
SLC4A1	0.44
SLC4A1	0.1
SLC4A1	0.66
PARP9 (poly(ADP-ribose) polymerase family member 9)	-0.55
PARP9 (poly(ADP-ribose) polymerase family member 9)	-0.43
PARP9 (poly(ADP-ribose) polymerase family member 9)	-1.05
PARP9 (poly(ADP-ribose) polymerase family member 9)	-0.35
ZNF524 (zinc finger protein 524)	0.52
ZNF524 (zinc finger protein 524)	0.74
ZNF524 (zinc finger protein 524)	1.25
ZNF524 (zinc finger protein 524)	-1.01
ZNF44 (zinc finger protein 44)	2.32
ZNF44 (zinc finger protein 44)	1.83
ZNF44 (zinc finger protein 44)	1.11
ZNF44 (zinc finger protein 44)	1.79
TCAF1 (TRPM8 channel associated factor 1)	2
TCAF1 (TRPM8 channel associated factor 1)	1.73
TCAF1 (TRPM8 channel associated factor 1)	0.92
TCAF1 (TRPM8 channel associated factor 1)	0.79
ZNF658 (zinc finger protein 658)	-0.08
ZNF658 (zinc finger protein 658)	0
ZNF658 (zinc finger protein 658)	0.01
ZNF658 (zinc finger protein 658)	-1.19
PLEKHG2 (pleckstrin homology and RhoGEF domain containing G2)	0.18
PLEKHG2 (pleckstrin homology and RhoGEF domain containing G2)	-0.02
PLEKHG2 (pleckstrin homology and RhoGEF domain containing G2)	0.38
PLEKHG2 (pleckstrin homology and RhoGEF domain containing G2)	0.12
